Source: paper PMC9108619

The chains behind the UniProt entries cited, without tags or fusion partners.
UniProt Q9HAU5: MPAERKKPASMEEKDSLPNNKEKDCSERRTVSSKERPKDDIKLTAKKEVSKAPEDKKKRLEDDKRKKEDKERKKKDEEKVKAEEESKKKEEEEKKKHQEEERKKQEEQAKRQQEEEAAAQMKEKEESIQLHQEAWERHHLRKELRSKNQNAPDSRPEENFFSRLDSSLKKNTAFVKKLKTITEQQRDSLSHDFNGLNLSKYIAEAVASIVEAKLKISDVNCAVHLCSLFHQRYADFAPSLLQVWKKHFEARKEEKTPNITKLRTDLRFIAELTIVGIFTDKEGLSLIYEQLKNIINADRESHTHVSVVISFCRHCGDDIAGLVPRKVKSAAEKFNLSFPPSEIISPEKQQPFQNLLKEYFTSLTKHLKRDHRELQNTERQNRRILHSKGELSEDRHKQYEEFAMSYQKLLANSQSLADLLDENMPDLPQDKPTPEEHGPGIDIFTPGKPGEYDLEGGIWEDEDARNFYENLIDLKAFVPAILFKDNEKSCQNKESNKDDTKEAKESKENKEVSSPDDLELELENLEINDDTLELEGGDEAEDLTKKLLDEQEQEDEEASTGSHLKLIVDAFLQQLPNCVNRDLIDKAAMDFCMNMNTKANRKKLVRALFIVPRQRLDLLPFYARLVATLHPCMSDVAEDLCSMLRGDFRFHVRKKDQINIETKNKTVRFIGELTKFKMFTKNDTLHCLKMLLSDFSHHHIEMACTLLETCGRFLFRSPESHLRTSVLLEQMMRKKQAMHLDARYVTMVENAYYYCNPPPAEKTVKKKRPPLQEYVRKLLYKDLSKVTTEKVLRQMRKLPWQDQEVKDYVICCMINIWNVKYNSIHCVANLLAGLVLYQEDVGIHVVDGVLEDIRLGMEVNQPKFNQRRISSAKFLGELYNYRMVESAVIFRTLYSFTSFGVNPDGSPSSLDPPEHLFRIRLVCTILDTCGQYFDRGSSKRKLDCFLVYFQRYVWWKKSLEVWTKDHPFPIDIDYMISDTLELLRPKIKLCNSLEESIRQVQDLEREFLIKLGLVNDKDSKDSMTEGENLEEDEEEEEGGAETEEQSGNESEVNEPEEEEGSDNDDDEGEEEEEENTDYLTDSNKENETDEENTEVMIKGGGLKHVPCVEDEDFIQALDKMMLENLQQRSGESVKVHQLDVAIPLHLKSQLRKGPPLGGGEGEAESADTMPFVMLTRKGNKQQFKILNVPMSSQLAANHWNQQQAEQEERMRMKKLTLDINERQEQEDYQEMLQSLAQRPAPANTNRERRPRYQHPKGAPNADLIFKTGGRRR
UniProt P15170: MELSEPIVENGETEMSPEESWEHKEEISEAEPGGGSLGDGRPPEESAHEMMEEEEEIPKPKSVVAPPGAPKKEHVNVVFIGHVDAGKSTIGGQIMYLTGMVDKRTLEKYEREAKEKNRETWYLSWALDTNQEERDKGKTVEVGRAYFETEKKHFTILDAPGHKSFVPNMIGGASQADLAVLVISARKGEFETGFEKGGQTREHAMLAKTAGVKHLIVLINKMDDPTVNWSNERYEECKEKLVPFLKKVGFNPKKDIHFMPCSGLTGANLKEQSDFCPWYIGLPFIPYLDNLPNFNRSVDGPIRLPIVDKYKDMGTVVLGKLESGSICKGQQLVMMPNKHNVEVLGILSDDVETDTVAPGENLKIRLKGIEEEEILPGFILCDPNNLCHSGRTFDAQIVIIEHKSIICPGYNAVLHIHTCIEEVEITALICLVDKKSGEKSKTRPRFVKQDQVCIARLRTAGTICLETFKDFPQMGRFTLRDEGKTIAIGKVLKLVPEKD
UniProt O15397: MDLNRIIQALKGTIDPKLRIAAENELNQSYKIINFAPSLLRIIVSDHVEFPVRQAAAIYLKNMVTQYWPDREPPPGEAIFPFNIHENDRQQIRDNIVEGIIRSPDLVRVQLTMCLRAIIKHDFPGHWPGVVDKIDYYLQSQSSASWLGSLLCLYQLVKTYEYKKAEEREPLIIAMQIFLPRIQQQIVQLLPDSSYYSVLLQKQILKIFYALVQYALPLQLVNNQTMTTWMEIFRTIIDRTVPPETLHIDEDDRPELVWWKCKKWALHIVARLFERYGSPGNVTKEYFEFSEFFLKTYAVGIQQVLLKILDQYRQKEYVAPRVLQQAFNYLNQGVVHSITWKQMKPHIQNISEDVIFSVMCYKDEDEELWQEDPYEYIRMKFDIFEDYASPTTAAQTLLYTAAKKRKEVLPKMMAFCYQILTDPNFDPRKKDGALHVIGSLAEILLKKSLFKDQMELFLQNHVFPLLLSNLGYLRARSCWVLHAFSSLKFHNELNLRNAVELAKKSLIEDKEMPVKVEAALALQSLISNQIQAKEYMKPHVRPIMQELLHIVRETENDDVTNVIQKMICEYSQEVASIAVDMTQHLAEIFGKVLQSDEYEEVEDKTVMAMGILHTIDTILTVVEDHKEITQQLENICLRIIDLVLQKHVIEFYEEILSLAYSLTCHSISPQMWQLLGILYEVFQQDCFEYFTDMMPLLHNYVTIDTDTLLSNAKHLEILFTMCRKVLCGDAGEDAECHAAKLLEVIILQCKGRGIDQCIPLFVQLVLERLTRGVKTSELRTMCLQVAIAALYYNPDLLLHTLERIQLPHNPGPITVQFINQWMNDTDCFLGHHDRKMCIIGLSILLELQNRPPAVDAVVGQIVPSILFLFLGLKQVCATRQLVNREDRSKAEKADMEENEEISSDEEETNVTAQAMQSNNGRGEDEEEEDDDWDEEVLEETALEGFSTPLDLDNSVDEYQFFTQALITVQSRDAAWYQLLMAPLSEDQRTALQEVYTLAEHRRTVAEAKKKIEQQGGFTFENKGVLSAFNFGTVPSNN

How the values were obtained:
Experiment in all cases: proximity labelling; TurboID; FLAG-TurboID-UPF3B WT or mutants in UPF3B KO clone 90 cells with UPF3A knockdown, 50 µM biotin for 15 min, streptavidin beads, mass spectrometry; against FLAG-TurboID control or against WT
[1] = biological target: T1, FLAG-TurboID-UPF3B (human) (UniProt Q9BZI7)
T1 sequence: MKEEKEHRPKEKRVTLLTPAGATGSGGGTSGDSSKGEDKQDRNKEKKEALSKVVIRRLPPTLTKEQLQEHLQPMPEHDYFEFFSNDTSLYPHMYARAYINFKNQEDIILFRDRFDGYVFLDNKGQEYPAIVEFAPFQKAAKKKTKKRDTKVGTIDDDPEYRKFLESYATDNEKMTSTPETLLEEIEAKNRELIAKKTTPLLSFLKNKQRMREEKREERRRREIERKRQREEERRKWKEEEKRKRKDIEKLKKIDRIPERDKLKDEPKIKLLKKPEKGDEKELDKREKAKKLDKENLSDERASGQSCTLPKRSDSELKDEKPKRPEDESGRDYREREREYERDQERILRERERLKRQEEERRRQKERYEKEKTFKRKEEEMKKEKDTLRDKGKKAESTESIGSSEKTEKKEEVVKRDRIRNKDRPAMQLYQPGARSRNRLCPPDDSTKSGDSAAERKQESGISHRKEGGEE

[2] = biological target: T2, FLAG-TurboID-UPF3B ΔEJC interaction (Δ421–434) (human) (UniProt Q9BZI7)
T2 sequence: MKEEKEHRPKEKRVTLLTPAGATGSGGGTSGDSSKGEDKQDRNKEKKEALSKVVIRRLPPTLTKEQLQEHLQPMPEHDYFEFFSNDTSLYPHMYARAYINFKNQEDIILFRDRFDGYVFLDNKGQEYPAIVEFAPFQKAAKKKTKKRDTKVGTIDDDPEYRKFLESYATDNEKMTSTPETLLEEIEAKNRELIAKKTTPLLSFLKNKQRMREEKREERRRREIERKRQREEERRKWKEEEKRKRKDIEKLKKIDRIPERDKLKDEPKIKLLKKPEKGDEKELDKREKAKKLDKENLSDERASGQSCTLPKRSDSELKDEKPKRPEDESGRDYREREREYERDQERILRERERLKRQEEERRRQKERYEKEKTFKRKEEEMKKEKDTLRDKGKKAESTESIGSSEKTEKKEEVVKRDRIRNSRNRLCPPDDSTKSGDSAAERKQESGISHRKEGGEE

[3] = biological target: T3, FLAG-TurboID-UPF3B ΔUPF2 interaction (K52D/RR56EE) (human) (UniProt Q9BZI7)
T3 sequence: T1 sequence with K52D, R56E, R57E

[4] = biological target: T4, FLAG-TurboID-UPF3B Δmiddle domain (Δ147–256) (human) (UniProt Q9BZI7)
T4 sequence: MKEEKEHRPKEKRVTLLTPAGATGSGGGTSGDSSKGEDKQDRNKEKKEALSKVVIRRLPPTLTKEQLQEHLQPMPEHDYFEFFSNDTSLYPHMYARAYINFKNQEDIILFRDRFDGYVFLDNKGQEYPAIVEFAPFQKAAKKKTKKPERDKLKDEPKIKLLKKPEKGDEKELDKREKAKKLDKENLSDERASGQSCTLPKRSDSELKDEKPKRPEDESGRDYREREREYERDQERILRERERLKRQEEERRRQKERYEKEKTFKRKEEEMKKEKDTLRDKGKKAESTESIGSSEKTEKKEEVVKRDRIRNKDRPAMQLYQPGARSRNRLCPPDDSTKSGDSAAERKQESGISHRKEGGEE

binding [1]: binds
Molecule: UPF2 (endogenous) (from UniProt Q9HAU5 1-1272)

binding [1]: no binding
Molecule: eukaryotic release factor 3a (from UniProt P15170 1-499)

binding [1]: binds
Molecule: IPO8 (from UniProt O15397 1-1037)

binding [1]: binds | binding [2]: binds | binding [3]: binds | binding [4]: binds
B1: UPF1 (protein, UniProt Q92900 1-1129)
chain: MSVEAYGPSSQTLTFLDTEEAELLGADTQGSEFEFTDFTLPSQTQTPPGGPGGPGGGGAGGPGGAGAGAAAGQLDAQVGPEGILQNGAVDDSVAKTSQLLAELNFEEDEEDTYYTKDLPIHACSYCGIHDPACVVYCNTSKKWFCNGRGNTSGSHIVNHLVRAKCKEVTLHKDGPLGETVLECYNCGCRNVFLLGFIPAKADSVVVLLCRQPCASQSSLKDINWDSSQWQPLIQDRCFLSWLVKIPSEQEQLRARQITAQQINKLEELWKENPSATLEDLEKPGVDEEPQHVLLRYEDAYQYQNIFGPLVKLEADYDKKLKESQTQDNITVRWDLGLNKKRIAYFTLPKTDSGNEDLVIIWLRDMRLMQGDEICLRYKGDLAPLWKGIGHVIKVPDNYGDEIAIELRSSVGAPVEVTHNFQVDFVWKSTSFDRMQSALKTFAVDETSVSGYIYHKLLGHEVEDVIIKCQLPKRFTAQGLPDLNHSQVYAVKTVLQRPLSLIQGPPGTGKTVTSATIVYHLARQGNGPVLVCAPSNIAVDQLTEKIHQTGLKVVRLCAKSREAIDSPVSFLALHNQIRNMDSMPELQKLQQLKDETGELSSADEKRYRALKRTAERELLMNADVICCTCVGAGDPRLAKMQFRSILIDESTQATEPECMVPVVLGAKQLILVGDHCQLGPVVMCKKAAKAGLSQSLFERLVVLGIRPIRLQVQYRMHPALSAFPSNIFYEGSLQNGVTAADRVKKGFDFQWPQPDKPMFFYVTQGQEEIASSGTSYLNRTEAANVEKITTKLLKAGAKPDQIGIITPYEGQRSYLVQYMQFSGSLHTKLYQEVEIASVDAFQGREKDFIILSCVRANEHQGIGFLNDPRRLNVALTRARYGVIIVGNPKALSKQPLWNHLLNYYKEQKVLVEGPLNNLRESLMQFSKPRKLVNTINPGARFMTTAMYDAREAIIPGSVYDRSSQGRPSSMYFQTHDQIGMISAGPSHVAAMNIPIPFNLVMPPMPPPGYFGQANGPAAGRGTPKGKTGRGGRQKNRFGLPGPSQTNLPNSQASQDVASQPFSQGALTQGYISMSQPSQMSQPGLSQPELSQDSYLGDEFKSQIDVALSQDSTYQGERAYQHGGVTGLSQY

Changes are numbered by the printed parent chain. No constants are given. Whether binding was seen depends on the method and setting. Binding seen in cells or lysates may run through a third protein. Here binding means that the protein was enriched with, or labelled near, the bait; the list need not be complete. For some of these results: A no says only that the protein was not detected with the bait. Sequences can lack the tags named with a protein. Each block holds one molecule with its values, some of them ahead of it.
